Laboratory results as given in paper PMC3821618.
Results are given in words; binding and its absence hold for the method and conditions named.

Legend:
[1] = molecular target: T1, mRuby2-BZip (rat), P05554; test: fluorescence correlation spectroscopy (FCS), molecular brightness analysis; live transfected mouse GHFT1 cells, cytosol; molecular brightness Mb = CPS/(N*Po) from one-component autocorrelation fits, compared with published intrinsic brightness and between FP alone and FP-BZip; 561 nm excitation, 36 °C, 5% CO2; conditions: remark: other sources report otherwise
T1 chain: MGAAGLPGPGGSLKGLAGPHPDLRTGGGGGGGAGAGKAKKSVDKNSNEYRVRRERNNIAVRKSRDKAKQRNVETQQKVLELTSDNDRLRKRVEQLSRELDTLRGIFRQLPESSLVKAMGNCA

[2] = molecular target: T2, mCherry-BZip (rat), P05554; test: as above; conditions: remark: other sources report otherwise
T2 chain: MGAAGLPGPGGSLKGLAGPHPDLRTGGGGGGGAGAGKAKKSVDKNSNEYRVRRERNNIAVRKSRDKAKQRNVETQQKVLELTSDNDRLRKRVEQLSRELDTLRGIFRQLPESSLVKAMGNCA

Binder | binding [1] | binding [2]
mRuby2-BZip, P05554 237-358 (domain or fragment) MGAAGLPGPGGSLKGLAGPHPDLRTGGGGGGGAGAGKAKKSVDKNSNEYRVRRERNNIAVRKSRDKAKQRNVETQQKVLELTSDNDRLRKRVEQLSRELDTLRGIFRQLPESSLVKAMGNCA | no binding | 
mCherry-BZip, P05554 237-358 (domain or fragment) MGAAGLPGPGGSLKGLAGPHPDLRTGGGGGGGAGAGKAKKSVDKNSNEYRVRRERNNIAVRKSRDKAKQRNVETQQKVLELTSDNDRLRKRVEQLSRELDTLRGIFRQLPESSLVKAMGNCA |  | no binding
